Chains of the proteins cited; added tags and fusions are not shown.
UniProt K7VIQ3, entry or part of it: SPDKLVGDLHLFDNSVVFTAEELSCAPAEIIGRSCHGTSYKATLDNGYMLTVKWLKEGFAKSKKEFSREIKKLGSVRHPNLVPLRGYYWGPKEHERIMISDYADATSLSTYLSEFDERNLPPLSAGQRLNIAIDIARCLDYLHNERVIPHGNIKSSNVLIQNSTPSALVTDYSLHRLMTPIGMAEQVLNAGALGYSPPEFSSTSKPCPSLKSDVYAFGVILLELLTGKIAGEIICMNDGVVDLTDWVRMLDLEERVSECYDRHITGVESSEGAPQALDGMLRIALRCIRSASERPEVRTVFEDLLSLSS

According to PMC5445127 (Frontiers in Plant Science, 2017):

Molecular target: T1, ZmSIRK1 (ZmSIRK1^737-1045) (Zea mays, UniProt K7VIQ3)
T1 construct: gene ZEAMMB73_Zm00001d047570; kinase domain Ser737-Ser1045 (full length 1045 aa; KD 762-1040), E. coli BL21(DE3)-R3-pRARE2, pNIC28a-Bsa4, 6xHis tag removed by TEV; forward primer encodes S737-V-V-F-T-A-E (translated); motifs 907DYS909, 933PPE935; model residues 744-972, 977-1000, 1009-1045
Assay: isothermal titration calorimetry
Format: binding

## CC(C)n1nc(-c2cc3cc(O)ccc3[nH]2)c2c(N)ncnc21 [PP242]
  Kd: 460 nM
